Data on 41 compounds can be found in PubChem BioAssay AID493014 (National Center for Advancing Translational Sciences (NCATS), 2011).

The structures appear in SMILES notation. The list shows a part of the results. These are further read-outs of the screen, such as a control signal, another cell line or another target. No call is given for them. The list favours compounds with an active or inconclusive main result. Potencies come from curve fits of mixed quality, noted in brackets.

This assay can be described thus: qHTS Assay to Find Inhibitors of Chronic Active B-Cell Receptor Signaling. Particulars: ABC-DLBCL IkBa-CBG/CBR reporter, luminescence ratio (green luciferase fused to IkBa over red control in TMD8 lymphoma cells), 4 h. An outline of the steps:
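TMD8 ABC-DLBCL cells carrying doxycycline-inducible green luciferase fused to IkappaBalpha plus unfused red luciferase were exposed to compounds (up to 46 uM) for 4 hrs at 37C. Activity came from the overlap-corrected green/red luminescence ratio.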

Where [1] appears, read: measured here: CBR red luminescence, cell number.
The mark [2] stands for this setting: measured here: IkBa-CBG green luminescence.

Broadly, the AC50 is the concentration giving half of the maximal activity seen.

In the case of `C=CCNCCCCOc1ccccc1-c1ccccc1`, the AC50 under setting [1] was 16.4 µM [falling, partial curve].

With `Cn1c(=O)c2c(nc(CN3CCC(C(N)=O)CC3)n2Cc2ccccc2F)n(C)c1=O`, the AC50 under setting [1] is 7.08 µM [rising, full curve].

With `O=S(=O)(c1ccccc1C(F)(F)F)N1CCN(CC(O)COc2ccccc2F)CC1` (centres undefined), under setting [1], the half-maximal activity concentration (AC50) was 6.31 µM [rising, single point]. On the same count and under the same terms, as for `CC(=O)N1CCN(C(=O)CCc2nnc(CCCCc3ccccc3)o2)CC1`, the figure is 7.08 µM [falling, partial curve, poor fit]; as for `CN(c1ccccc1)S(=O)(=O)c1cccc(NC(=O)c2ccc(Cl)c([N+](=O)[O-])c2)c1`, 32.6 µM [rising, partial curve, poor fit].

For `C/C(Cc1ccccc1)=N\NC(=O)c1ccc(F)cc1`, under setting [1], the half-maximal activity concentration (AC50) is 16.4 µM [falling, partial curve].

For `O=C(N1CCOCC1)N1CCCN(C(=O)N2CCOCC2)CC1`, the AC50 under setting [1] is 0.0651 µM [rising, full curve, poor fit]. On to `Cc1ccc(CNC(=O)CSCc2cccc(F)c2)cc1`, for which the concentration at half-maximal activity (AC50) under setting [1] was 1 µM [rising, partial curve]. `CC(C)Cn1cnc2c1c(=O)n(CC(O)c1ccccc1)c(=O)n2CC(C)C` (centres undefined): under setting [2], the half-maximal activity concentration (AC50) is 0.651 µM [rising, full curve]. On to `CCC1=Nc2cc(C(=O)NCC3CCCO3)ccc2Sc2ccc(Br)cc21` (centres undefined), for which the AC50 under setting [1] is 35.5 µM [rising, single point] and the concentration at half-maximal activity (AC50) under setting [2] is 35.5 µM [falling, single point]. For the compound `CC1=CC(C)(C)Nc2ccc(OC(=O)CCN3C(=O)c4ccccc4C3=O)cc21`, the half-maximal activity concentration (AC50) under setting [1] was 10.3 µM [falling, partial curve].

On to `CN(C)c1ccc(/C=N/NS(=O)(=O)c2ccc(Br)cc2)cc1`, for which the half-maximal activity concentration (AC50) under setting [1] is 0.0891 µM [falling, full curve, poor fit]. With `NNC(=O)c1ccc(COc2cccc3ccccc23)o1`, the half-maximal activity concentration (AC50) under setting [1] was 2.82 µM [falling, full curve, poor fit].

Consider `CN(/N=C/c1c[nH]c2ccccc12)c1cnn(-c2ccc(F)c(Cl)c2)c(=O)c1Cl`, for which, under setting [1], the AC50 was 29.1 µM [falling, single point]. Still for that read-out and setting: as for `Cc1sc(NC(=O)CSc2nnc(-c3ccc(F)cc3)o2)c(C#N)c1C`, the figure is 5.01 µM [rising, partial curve, poor fit]. On to `O=C(Nc1ccc(F)cc1)c1sccc1SCc1cccc(C(F)(F)F)c1`, for which the AC50 was 29.1 µM [falling, single point] under setting [1] and 25.9 µM [rising, partial curve, poor fit] under setting [2]. As for `O=C(CCN1C(=O)C2C3C=CC(C3)C2C1=O)NCc1cccnc1` (centres undefined), the AC50 under setting [1] is 3.66 µM [falling, partial curve, poor fit]. Consider `O=C(CN1CCOC1=O)N1CCCC(Nc2ccc(F)c(F)c2)C1` (centres undefined), for which the AC50 under setting [1] is 35.5 µM [rising, single point]. The same measure, in the same setting: the figure for `CSc1ccc(Cl)c(C(=O)Nc2ccc(N3CCOCC3)cc2)c1` is 20 µM [falling, partial curve].

With `O=C(NNC(=O)c1ncc(Cl)c(Cl)c1Cl)c1ccc(F)cc1`, the AC50 reads like this: under setting [1], 11.2 µM [rising, single point]; under setting [2], 31.6 µM [falling, partial curve, poor fit]. Turning to `C/C(=N/Nc1ccc(C(=O)O)cc1)c1ccc(O)c(O)c1O`, the half-maximal activity concentration (AC50) under setting [1] was 1.84 µM [falling, full curve].

In the case of `Cc1[nH]n(-c2ccc([N+](=O)[O-])cc2)c(=O)c1C=NCCN1CCN(C(=O)C(C)C)CC1`, the AC50 under setting [1] was 2.82 µM [falling, full curve].

With `CCCCCOc1ccc(CN2CCOCC2)cc1Cl`, under setting [1], the AC50 was 0.461 µM [rising, full curve]. Still for that read-out and setting: as for `COc1ccc(-c2[nH]ncc2CN2CCC(OCc3cccnc3)CC2)c(F)c1`, the figure is 0.447 µM [falling, partial curve, poor fit].

As for `COc1ccc(CNCC(O)(c2ccccc2)c2ccccc2)cc1`, the concentration at half-maximal activity (AC50) under setting [1] is 31.6 µM [falling, single point].

Turning to `COC(=O)c1cccc(NC(=O)/C=C/c2ccc3c(c2)OCO3)c1`, the half-maximal activity concentration (AC50) under setting [1] is 4.61 µM [falling, partial curve]. Turning to `COc1ccc(S(=O)(=O)N2CCc3ccccc32)cc1C(=O)NC1(C)CCS(=O)(=O)C1` (centres undefined), the AC50 under setting [1] is 6.51 µM [rising, single point]. Consider `COc1ccccc1CCNC(=O)c1ccc(OC)c(OC2CCN(C(C)C)CC2)c1`, for which, under setting [1], the AC50 is 17.8 µM [falling, partial curve, poor fit]. As to `CC(=O)c1cc(O)c2ccccc2c1O`, the AC50 under setting [1] was 0.631 µM [falling, full curve]. For the compound `O=C(COc1ccc(S(=O)(=O)N2CCCC2)cc1Cl)NC1CCCC1`, under setting [1], the concentration at half-maximal activity (AC50) is 14.6 µM [falling, single point]. As to `COc1ccc(NC(=O)CCOc2ccccc2)cc1`, the concentration at half-maximal activity (AC50) under setting [1] was 8.91 µM [rising, partial curve, poor fit]. Turning to `O=C(O)c1cccc(S(=O)(=O)Nc2ccc(OCc3ccccc3)cc2)c1`, under setting [1], the concentration at half-maximal activity (AC50) was 35.5 µM [falling, single point]. For `O=C1CN(C(=O)c2ccccc2)C(c2ccccc2)c2cc(Cl)ccc2N1` (centres undefined), the AC50 under setting [1] is 11.2 µM [falling, partial curve, poor fit].

On to `C=CCSc1nsc(NC(=O)Nc2cccc(C(C)=O)c2)n1`, for which the AC50 under setting [1] was 35.5 µM [falling, single point]. On to `CC1CC(C)CN(C(=O)c2cc3cc(Br)cc(Br)c3o2)C1` (centres undefined), for which the concentration at half-maximal activity (AC50) under setting [1] is 25.1 µM [rising, single point]. Same read-out and setting: as for `COc1ccc2c(c1)OC(c1ccccc1)(C(F)(F)F)NC2=O` (centres undefined), the figure is 32.6 µM [falling, partial curve, poor fit].

Turning to `O=C(Nc1nccs1)c1cc2cc(Cl)ccc2oc1=O`, the AC50 under setting [1] is 1 µM [rising, full curve]. Take `Cc1ccccc1S(=O)(=O)Nc1nc2ccccc2nc1NCCO`: the AC50 under setting [1] is 2.59 µM [falling, partial curve, poor fit].

With `COc1cc(/C=C/c2ccc3cccc(OC)c3n2)c(O)c([N+](=O)[O-])c1`, under setting [1], the concentration at half-maximal activity (AC50) was 0.501 µM [falling, full curve]. Regarding `CC(=O)Nc1ccc(NC(=O)Cc2ccc(F)cc2)cc1`, under setting [1], the concentration at half-maximal activity (AC50) is 0.794 µM [rising, full curve]. Regarding `CCn1nnnc1Oc1ccc(Cl)cc1`, the AC50 under setting [1] is 29.1 µM [rising, single point].
